The source gives many values for each of these; only a part stands here.
Test: Stability of clinical film-coated tablets Batches A-D (Tables 14, 15A-15C)
Format: physicochemical
Settings: for Total Imp./Deg. (%): tablets Batch C, 1 g desiccant
Protocol: FIGS. 10-12 depict additional dissolution profiles for the sofosbuvir/velpatasvir SSD/voxilaprevir SSD tablets having the formulation described in Table 13 and which were used in phase 1, 2, and 3 clinical studies, where the dissolution testing was conducted at pH 5.0 acetate buffer containing 2.0% w/v polysorbate 80. Four batches of the sofosbuvir/velpatasvir SSD/voxilaprevir SSD tablets were tested, with Batch A manufactured at 100 kg and Batches B, C and D manufactured at 145 kg. All other aspects of the formulation and manufacturing process were otherwise equivalent. The four batches were packed in the same commercial configuration: 28 count, 100 mL HPDE bottle with 1 g silica gel desiccant canister and a polyester fiber coil. […] Moreover, for Batch A, the amount dissolved at 30 min remained between 98 and 100% for sofosbuvir, between 90 and 92% for velpatasvir SSD, and between 89 and 93% for voxilaprevir SSD. […] For Batch D, the amount dissolved at 30 min remained at 100% for sofosbuvir, between 90 and 91% for velpatasvir SSD, and between 89 and 91% for voxilaprevir SSD. Release of velpatasvir SSD and voxilaprevir SSD from the sofosbuvir/velpatasvir SSD/voxilaprevir SSD tablets associated with all four Batches was complete after 60 minutes.
Stability data associated with the sofosbuvir/velpatasvir SSD/voxilaprevir SSD film-coated tablets (Batch A) are presented in Table 14. […] No upward trend in the content of degradation products was observed over the time period studied. The water content for packaged tablets remained between 1.9 and 2.3% through 6 months storage at 40° C./75% RH, 30° C./75% RH, and 25° C./60% RH. As summarized in Table 14, the packaged tablets (Batch A) were physically stable with no change in XRPD patterns after 6 months storage.
Stability data associated with the sofosbuvir/velpatasvir SSD/voxilaprevir SSD film-coated tablets (Batches B-D) are presented in Tables 15A-15C, respectively. […] No upward trend in the content of degradation products was observed over the time period studied. The water content for packaged tablets remained between 1.8 and 2.3% through 6 months storage at 40° C./75% RH, 30° C./75% RH, and 25° C./60% RH. The packaged tablets were physically stable with no change in XRPD patterns after 6 months storage.
For Batch D, the packaged tablets had acceptable chemical stability for up to 1 month under all conditions with total impurities/degradation products of sofosbuvir remaining at 0.0%, velpatasvir SSD remaining between 0.7 and 0.8%, and voxilaprevir SSD remaining at 0.0%. No upward trend in the content of degradation products was observed over the time period studied. The water content for packaged tablets remained between 1.9 and 2.3% through 1 month storage at 40° C./75% RH, 30° C./75% RH, and 25° C./60% RH.

CC(C)OC(=O)C(C)N[P@](=O)(OC[C@H]1O[C@@H](n2ccc(=O)[nH]c2=O)[C@](C)(F)[C@@H]1O)Oc1ccccc1 (stereo in doubt) [sofosbuvir, (S)-isopropyl 2-(((S)-(((2R,3R,4R,5R)-5-(2,4-dioxo-3,4-dihydropyrimidin-1(2H)-yl)-4-fluoro-3-hydroxy-4-methyltetrahydrofuran-2-yl)methoxy)(phenoxy)phosphoryl)amino)propanoate]
0.0%: Total Imp./Deg. (Batch B, 25° C./60% RH, 3 months) | Total Imp./Deg. (Batch B, 25° C./60% RH, 6 months) | Total Imp./Deg. (Batch B, 30° C./75% RH, 3 months) | Total Imp./Deg. (Batch B, 30° C./75% RH, 6 months) | Total Imp./Deg. (Batch B, 40° C./75% RH, 1 month) | Total Imp./Deg. (Batch B, 40° C./75% RH, 3 months) | Total Imp./Deg. (Batch B, 40° C./75% RH, 6 months) | Total Imp./Deg. (Batch D, 40° C./75% RH, 1 month) | Total Imp./Deg. (Batch D, Initial) | Total Imp./Deg. (%) (25° C./60% RH, 3 months) | Total Imp./Deg. (%) (25° C./60% RH, 6 months) | Total Imp./Deg. (%) (30° C./75% RH, 3 months) | Total Imp./Deg. (%) (30° C./75% RH, 6 months) | Total Imp./Deg. (%) (40° C./75% RH, 1 month) | Total Imp./Deg. (%) (40° C./75% RH, 3 months) | Total Imp./Deg. (%) (40° C./75% RH, 6 months) | Total Imp./Deg. (%) (Initial, time 0)
